Assay results reported in patent CN110144011A.
Positions count from the first letter of the chain named. Results are given in words; binding and its absence hold for the method and conditions named. Some entries that bind do so weakly or less than the wild type.

Chains of the proteins cited; added tags and fusions are not shown. Residues count along the entry.
UniProt Q8TDQ0, residues 22-202: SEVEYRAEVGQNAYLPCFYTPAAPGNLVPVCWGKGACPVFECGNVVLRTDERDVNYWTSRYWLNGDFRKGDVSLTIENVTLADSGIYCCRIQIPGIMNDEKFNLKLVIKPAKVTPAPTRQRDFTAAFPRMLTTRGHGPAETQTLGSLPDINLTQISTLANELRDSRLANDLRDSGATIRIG

B1: Nb10 (VHH)
VHH: QVQLQESGGGSVQAGGSLRLSCAASGYTYSRACMGWFRQAPGKQREWVSGIRDGGSTAYADSVKGRFTISRDNAKNTLYLQMNSLKPEDTAMYYCAADITCRHARPPYWGQGTQVTVSS
B2: Nb11 (VHH)
VHH: B1 VHH with A23T, G54D
B3: Nb12 (VHH)
VHH: B1 VHH with A14P, A23T, D53H, G54D, T57I, A58T, A96G, T100D, H103G, A104T
B4: Nb13 (VHH)
VHH: QVQLQESGGGSVQVGGSLRLSCTASGYTYSRACMGWFRQAPGKQREWVSGVRHDGSITYADSVKGRFTISRDNAKNTLYLQMNSLKPEDTAMYYCGADIDCRGTRPPYWGQGTQVTVSS
B5: Nb9 (VHH)
VHH: B1 VHH with A14V, A23T, G54D

Biological target: TIM3(ECD)-Fc抗原 (human) (UniProt Q8TDQ0)
Experiment: ELISA of crude periplasmic extract on antigen-coated plate, anti-HA detection; clones positive at OD ratio to control >3

| Binder | binding |
| --- | --- |
| B1 | binds |
| B2 | binds |
| B3 | binds |
| B4 | binds |
| B5 | binds |
